Measurements as given in patent US20120009123A1, “Albumin binding peptide-mediated disease targeting” (ABRAXIS BIOSCIENCE, LLC, priority 2008, published 2012).
These are yes or no findings as the source states them, for the method shown. Some results given as binding are weak or reduced against the parent protein; the word gives no strength.

By UniProt entry, the sequences of proteins in these tests, tags left out. Residues count along the entry.
UniProt P02768, residues 25-609: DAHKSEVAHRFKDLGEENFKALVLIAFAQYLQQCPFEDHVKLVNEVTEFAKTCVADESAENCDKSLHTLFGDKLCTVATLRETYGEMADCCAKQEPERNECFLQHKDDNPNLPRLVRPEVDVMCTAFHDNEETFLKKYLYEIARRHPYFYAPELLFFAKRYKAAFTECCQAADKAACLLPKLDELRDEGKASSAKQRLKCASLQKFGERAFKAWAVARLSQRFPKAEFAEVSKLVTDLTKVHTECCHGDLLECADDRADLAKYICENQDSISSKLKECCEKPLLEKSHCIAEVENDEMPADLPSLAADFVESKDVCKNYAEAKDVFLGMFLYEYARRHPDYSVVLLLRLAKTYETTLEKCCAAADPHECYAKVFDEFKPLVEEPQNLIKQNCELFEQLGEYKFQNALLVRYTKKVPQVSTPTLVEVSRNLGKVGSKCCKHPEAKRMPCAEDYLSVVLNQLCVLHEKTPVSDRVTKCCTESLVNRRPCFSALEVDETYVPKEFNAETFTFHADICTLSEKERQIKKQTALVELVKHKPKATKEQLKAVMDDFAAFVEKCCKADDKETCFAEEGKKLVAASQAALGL

Tests used:
[1] = target: human serum albumin spiked with Alexa fluor 488 conjugated bovine serum albumin (human) (UniProt P02768); test: competitive binding assay with SPARC sub-fragment peptides (FIG. 9)
human serum albumin = target: T1, human serum albumin (human, UniProt P02768 25-609); test: M13 12-mer phage display, four rounds of panning on coated HSA, sequencing of about 100 plaques
T1 construct: also called HSA; human albumin

[2] = target: human serum albumin spiked with Alexa fluor 488 conjugated bovine serum albumin (human) (UniProt P02768); test: competitive binding assay, peptide against binding of Alexa 488-BSA/HSA to SPARC, two experiments

Measured: binding

WPHHHHTRLSTV […]
binds: [1] | [1]; record 2 | human serum albumin | [2]
